# Source: publication PMC2233675
# These are yes or no findings as the source states them, for the method shown. In cells and extracts the contact can be indirect. Some results given as binding are weak or reduced against the parent protein; the word gives no strength. Sequences can lack the tags named with a protein.
# T1: Drosophila Rad9, FLAG-tagged (Drosophila) (UniProt O96533)
# T1 sequence: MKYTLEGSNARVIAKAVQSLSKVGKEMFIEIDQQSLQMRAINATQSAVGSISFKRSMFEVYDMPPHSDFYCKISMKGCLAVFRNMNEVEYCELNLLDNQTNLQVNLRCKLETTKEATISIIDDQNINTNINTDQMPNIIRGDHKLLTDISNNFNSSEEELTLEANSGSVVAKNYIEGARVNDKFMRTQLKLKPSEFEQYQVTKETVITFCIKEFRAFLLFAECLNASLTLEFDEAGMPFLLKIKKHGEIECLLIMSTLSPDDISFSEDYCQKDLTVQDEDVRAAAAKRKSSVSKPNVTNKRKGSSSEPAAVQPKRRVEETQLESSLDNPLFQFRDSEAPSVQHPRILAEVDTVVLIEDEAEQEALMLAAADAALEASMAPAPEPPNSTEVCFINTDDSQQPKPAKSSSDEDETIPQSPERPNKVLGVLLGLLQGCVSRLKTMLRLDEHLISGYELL
# Target: T1, Drosophila Rad9, FLAG-tagged (Drosophila)
# Assay: co-IP; cleared lysate of 10 ovary pairs in IP buffer (50 mM Tris pH 8, 150 mM NaCl, 1 mM CaCl2, 0.1% Tween-20, protease and phosphatase inhibitors); anti-FLAG M2 on Protein A/G agarose, 4 °C, 2 hours; Western blot for FLAG and HA
binder,measurement,value
"Drosophila Brca2 (CG30169), HA-tagged (protein, UniProt Q9W157 1-971) MDQNGASGSHPNRLSQGRGAHARERGATVSAAANRSNIIDEMAKICEADRQTFAIARRTRGHERLAVDNSDFVAVEDLILSYAEPTPEDQVEMIMSDFCSSPTYAEDEDEPSHESEPWFRFRNKRIRTYSRKRDPKSHKAVQNEKRRGSSGLSVQRDLNTSFTSMACDFDASSQKIHEVLLNLSQYFSATATASGPTPVPSQIDLPTEARQDSGDECFNAELENLRDDLLQSGFTFEASFYENEHEQEGPGTMADTIYGDSMQSVPTTRLRLESGKRNVWSDADSTLKKADVEIAENKKLLMGQTQAKNVDIEENTNFILEGIPLSEWLTPMELPEISKDVIKHIPDKKLKLEPSSQKEQKSSKDSNASKVRGASKQSCDINTKNEGTTILDQPNAAEQENLLNDGELLEEFLFNDWQPMQCSNGPSTSKNAIQGPKENINSINLDDKEQPEKQTPNKSQTISSHQLNGIRKKSFKFIEVSEEMKIKGEEFVDKVVSGLYHFSHKCNLRTEEYSDNHSQVMESTQCAEFKSAPSKPIEILDGKETYNAIAKVDVGEINGKFSPLNNDTIAEPEFCGFRTASNKAIPISEKMKIKTAEFMAEFQSKETIQQNDYLVHQPNDKPTSVGLDTALKRSIESSEEMRSKASKLVVVDTTMREPHQPTLDPVCRDLNESQFFGFRTASNKAIEITEAMEKRGAMFLAQSKATDQLNGWQPSDFPDVLPTSPNNEIHSINVENNKAVNTKTVSETEFFGFRTASNKGIVISENTKIKVAQFMSEFQAADASTDSNQPTVISEESRNIDAKFVDEAAAEDSANKPTFCNVQSLKNTSDIEHFKHDFFVEHSAKEEHPLCSQPLVRTPRRSQEIHSSLSQLAGKSPLDQATKKSVIARRNLLSLKRKRKIILSTETSTSCALPTMERFAPKPSSTSTPLADRDLNRSKDCTKNRQDAEDMSPICMQPKKSRRLGLSRSRY",binding,binds
